Measurements: patent US20040006043A1, “Methods, pharmaceutical compositions and pharmaceutical kits for enhancing the therapeutic efficiency of cancer chemotherapeutic agents” (RAMOT UNIVERSITY AUTHORITY FOR APPLIED RESEARCH & …, priority 2002, published 2004)
At least one structure is not confirmed: it was looked up by name or label, or the drawing left a doubt.

What was measured:
[1] = system: C6 cells
Experimental: Cells were grown in monolayers as described above. Several days prior to an experiment the cells (at a density in the range of 5×10^4-5×10^5 cells/ml) were seeded into 6 multiwell culture plates. The experiments were performed when the cells reached confluency.
At the end of the incubation the media was removed and the cells were incubated with “drug free media”, which consisted of either buffer alone, for cells loaded with drug only, or buffer that contained the chemosensitizer used at the same dose as in the incubation, for the cells loaded with the drug and the chemosensitizer. This replacement of the loading with the “drug free media” was performed in order to create the driving force for drug efflux from the cell into that external media. At designated periods (time points), the external media was collected and thereafter replaced by fresh “drug free media”, in order to maintain a unidirectional flux, from the cell out. The drug concentration was measured in each of the collected media, and in the cells at the end of the experiment.

[2] = system: C26 cells; settings: with doxorubicin formulations
[3] = system: C26 cells; test: Drug efflux (doxorubicin or MMC) with 1 mM Lithium; assay type: cell-based, murine
[4] = doxorubicin efflux, 3 mM Lithium

## [Li] [Lithium]
[1]
  doxorubicin efflux data at 1 mM Lithium versus 15 μM verapamil: coincides
[1]; [4]
  fraction of the fast-phase efflux: completely abolished
  time of complete depletion: 7 h
[2]
  chemosensitizer activity: efficient chemosensitizer
[3]
  effect on doxorubicin or MMC efflux: increased time of complete depletion and decreased fraction of the fast-phase efflux
